No constants are given. Whether binding was seen depends on the method and setting. In cells and extracts the contact can be indirect. Some binding calls cover weakened binding; strength is not graded here. For part of these data: Tags and fused reporters may be left off the sequences shown.
B1: C16orf72 (protein, UniProt Q14CZ0 1-275)
chain: MEERKEEGEAEIQEHGPEHWFSKWERQCLAEAEQDEQLPPELQEEAAAAAQPEHKQQKLWHLFQNSATAVAQLYKDRVCQQPGLSLWVPFQNAATAVTNLYKESVDTHQRSFDIGIQIGYQRRNKDVLAWVKKRRRTIRREDLISFLCGKVPPPRNSRAPPRLTVVSPNRATSTETSSSVETDLQPFREAIALHGLSGAMASISVRSSTPGSPTHVSSGSNASRRRNGLHDVDLNTFISEEMALHLDNGGTRKRTSAQCGDVITDSPTHKRNRMI

Amino acid sequences for entries named in this document (tags omitted).
UniProt P49736: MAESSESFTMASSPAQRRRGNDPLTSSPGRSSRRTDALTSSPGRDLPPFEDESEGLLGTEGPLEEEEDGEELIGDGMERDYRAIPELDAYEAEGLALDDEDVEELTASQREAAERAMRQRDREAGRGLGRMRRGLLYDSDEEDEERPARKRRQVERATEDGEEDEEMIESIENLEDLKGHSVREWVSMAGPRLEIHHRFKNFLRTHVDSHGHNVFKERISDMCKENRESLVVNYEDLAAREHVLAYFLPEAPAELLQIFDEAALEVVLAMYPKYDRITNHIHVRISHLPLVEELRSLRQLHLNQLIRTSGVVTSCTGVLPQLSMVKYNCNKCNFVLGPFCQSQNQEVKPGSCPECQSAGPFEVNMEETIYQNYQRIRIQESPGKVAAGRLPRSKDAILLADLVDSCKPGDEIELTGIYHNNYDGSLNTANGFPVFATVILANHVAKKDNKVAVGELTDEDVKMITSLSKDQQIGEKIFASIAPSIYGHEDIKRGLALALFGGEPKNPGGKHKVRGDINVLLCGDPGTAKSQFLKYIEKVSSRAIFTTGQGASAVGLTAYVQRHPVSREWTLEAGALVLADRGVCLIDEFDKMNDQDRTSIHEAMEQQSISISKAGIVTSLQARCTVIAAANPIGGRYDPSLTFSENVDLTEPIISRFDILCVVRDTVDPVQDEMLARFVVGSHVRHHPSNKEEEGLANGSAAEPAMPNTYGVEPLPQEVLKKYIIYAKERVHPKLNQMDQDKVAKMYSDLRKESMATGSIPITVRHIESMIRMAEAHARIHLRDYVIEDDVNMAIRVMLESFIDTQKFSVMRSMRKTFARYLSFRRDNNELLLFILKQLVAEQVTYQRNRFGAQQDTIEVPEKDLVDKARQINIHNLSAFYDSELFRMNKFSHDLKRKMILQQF
UniProt Q7Z333: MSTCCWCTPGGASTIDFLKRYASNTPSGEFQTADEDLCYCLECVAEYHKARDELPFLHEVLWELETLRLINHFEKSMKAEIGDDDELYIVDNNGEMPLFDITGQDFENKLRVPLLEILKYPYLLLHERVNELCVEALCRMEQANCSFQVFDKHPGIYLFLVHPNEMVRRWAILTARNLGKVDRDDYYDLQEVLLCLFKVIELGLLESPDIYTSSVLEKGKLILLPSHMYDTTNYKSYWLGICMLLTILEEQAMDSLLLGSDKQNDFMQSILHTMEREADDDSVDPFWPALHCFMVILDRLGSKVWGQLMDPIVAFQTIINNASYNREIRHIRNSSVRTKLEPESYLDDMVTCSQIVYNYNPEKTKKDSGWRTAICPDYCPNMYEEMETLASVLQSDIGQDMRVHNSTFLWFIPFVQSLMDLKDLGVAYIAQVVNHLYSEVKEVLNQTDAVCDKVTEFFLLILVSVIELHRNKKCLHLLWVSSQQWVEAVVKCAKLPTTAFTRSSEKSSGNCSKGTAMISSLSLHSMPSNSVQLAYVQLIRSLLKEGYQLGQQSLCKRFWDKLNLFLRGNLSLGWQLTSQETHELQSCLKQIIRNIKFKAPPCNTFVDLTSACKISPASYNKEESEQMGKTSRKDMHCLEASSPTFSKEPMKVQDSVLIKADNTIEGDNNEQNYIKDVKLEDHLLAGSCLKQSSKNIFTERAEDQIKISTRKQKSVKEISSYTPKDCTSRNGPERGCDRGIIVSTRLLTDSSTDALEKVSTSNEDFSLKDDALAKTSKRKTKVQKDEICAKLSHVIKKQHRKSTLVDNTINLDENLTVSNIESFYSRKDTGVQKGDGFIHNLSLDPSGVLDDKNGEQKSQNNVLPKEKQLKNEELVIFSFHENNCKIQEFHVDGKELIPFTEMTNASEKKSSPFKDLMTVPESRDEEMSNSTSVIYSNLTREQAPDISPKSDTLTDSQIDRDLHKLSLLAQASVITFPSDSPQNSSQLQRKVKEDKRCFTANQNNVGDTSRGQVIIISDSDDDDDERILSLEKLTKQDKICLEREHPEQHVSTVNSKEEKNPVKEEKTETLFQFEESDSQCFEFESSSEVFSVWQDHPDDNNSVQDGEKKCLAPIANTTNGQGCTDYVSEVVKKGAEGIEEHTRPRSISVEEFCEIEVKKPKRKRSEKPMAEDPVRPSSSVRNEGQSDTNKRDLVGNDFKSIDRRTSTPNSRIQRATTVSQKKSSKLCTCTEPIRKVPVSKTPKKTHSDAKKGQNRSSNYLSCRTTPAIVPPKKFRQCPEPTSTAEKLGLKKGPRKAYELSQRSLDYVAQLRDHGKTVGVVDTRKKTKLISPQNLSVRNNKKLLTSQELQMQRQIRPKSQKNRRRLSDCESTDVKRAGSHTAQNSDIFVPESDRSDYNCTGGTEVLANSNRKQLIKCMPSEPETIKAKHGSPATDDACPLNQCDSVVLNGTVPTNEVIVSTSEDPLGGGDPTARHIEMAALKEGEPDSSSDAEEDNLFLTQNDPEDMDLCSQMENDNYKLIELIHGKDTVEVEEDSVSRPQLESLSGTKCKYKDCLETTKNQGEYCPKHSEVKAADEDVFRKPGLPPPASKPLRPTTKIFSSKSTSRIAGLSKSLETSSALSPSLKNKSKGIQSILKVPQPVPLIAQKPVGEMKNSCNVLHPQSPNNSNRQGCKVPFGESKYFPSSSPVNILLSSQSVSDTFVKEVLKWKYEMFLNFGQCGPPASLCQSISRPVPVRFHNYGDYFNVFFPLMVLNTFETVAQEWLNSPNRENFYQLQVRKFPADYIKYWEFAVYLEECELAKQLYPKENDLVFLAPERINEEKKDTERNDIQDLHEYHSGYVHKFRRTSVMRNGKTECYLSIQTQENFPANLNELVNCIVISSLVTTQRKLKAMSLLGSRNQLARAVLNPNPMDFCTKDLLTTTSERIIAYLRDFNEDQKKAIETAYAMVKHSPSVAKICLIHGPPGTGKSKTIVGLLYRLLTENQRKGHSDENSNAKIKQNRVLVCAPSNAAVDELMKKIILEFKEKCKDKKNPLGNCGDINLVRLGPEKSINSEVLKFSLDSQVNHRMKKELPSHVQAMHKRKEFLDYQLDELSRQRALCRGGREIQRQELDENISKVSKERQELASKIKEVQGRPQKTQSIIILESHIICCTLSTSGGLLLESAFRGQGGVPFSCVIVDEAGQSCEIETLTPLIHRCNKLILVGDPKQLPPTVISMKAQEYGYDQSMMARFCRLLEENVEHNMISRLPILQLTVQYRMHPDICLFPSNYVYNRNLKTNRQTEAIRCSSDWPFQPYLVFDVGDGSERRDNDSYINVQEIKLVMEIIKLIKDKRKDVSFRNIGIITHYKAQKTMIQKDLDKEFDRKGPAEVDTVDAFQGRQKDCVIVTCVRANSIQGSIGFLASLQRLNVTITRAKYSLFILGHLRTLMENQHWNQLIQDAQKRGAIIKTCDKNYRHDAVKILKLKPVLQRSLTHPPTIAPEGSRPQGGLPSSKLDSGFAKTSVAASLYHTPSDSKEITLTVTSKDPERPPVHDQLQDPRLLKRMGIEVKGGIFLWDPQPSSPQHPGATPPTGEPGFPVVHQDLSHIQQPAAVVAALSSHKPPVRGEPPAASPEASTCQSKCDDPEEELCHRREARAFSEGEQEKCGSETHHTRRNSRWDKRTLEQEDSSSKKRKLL

Assays:
HA-Flag-C16orf72 = target: T1, HA-Flag-C16orf72 (UniProt Q14CZ0); experiment: co-IP; c16orf72-HA-Flag immunoprecipitated with anti-HA beads from whole-cell extract of c16orf72Δ U2OS cells, untreated or 2 mM HU for 2 hours; Triton X-100 lysis buffer (100 mM NaCl, 50 mM Tris-HCl pH 8.0) with benzonase; western blot
T1 sequence: B1 chain

MCM2 = MCM2 (UniProt P49736); experiment: proximity ligation; Duolink proximity ligation assay on methanol-fixed cells with antibodies to C16orf72 and MCM2
[1] = target: Senataxin (human (endogenous in U2OS)) (UniProt Q7Z333); experiment: co-IP; Senataxin immunoprecipitated; C16orf72 detected in the immunoprecipitate

| Molecule | binding (HA-Flag-C16orf72) | binding (MCM2) | binding [1] |
| --- | --- | --- | --- |
| Senataxin (from UniProt Q7Z333 1-2677) | binds |  |  |
| B1 |  | no binding | binds |

Source: PMC10435583
